# From article PMC7062184, “A lipoprotein lipase–GPI-anchored high-density lipoprotein–binding protein 1 fusion lowers triglycerides in mice: Implications for managing familial chylomicronemia syndrome” (The Journal of Biological Chemistry, 2019)
# These are yes or no findings as the source states them, for the method shown. Tags and fused reporters may be left off the sequences shown.
# How the values were obtained:
# [1] = target: LPL(28–475)-(G4S)4-hGPIHBP1(21–151)-FLAG-His6-Avi (human); assay: SEC; analytical size-exclusion chromatography of the purified LPL–GPIHBP1 fusion protein; ~75 kDa; both purified
# [2] = target: His6-TEV-LPL (N-terminally His6-tagged human lipoprotein lipase) (human); assay: SEC; His6-LPL, GPIHBP1 and LMF1 co-transfected 3:1:1 in HEK293T; complex captured from the medium by Ni-affinity, then Superdex 200 in 10 mM Tris pH 7.5, 300 mM NaCl; eluted at ~75 kDa; both purified
binding [1],binding [2],Binder
no binding,–,"LPL(28–475)-(G4S)4-hGPIHBP1(21–151)-FLAG-His6-Avi (protein, biotin on the C-terminal AviTag (BirA) in ELISA and SPR) ADQRRDFIDIESKFALRTPEDTAEDTCHLIPGVAESVATCHFNHSSKTFMVIHGWTVTGMYESWVPKLVAALYKREPDSNVIVVDWLSRAQEHYPVSAGYTKLVGQDVARFINWMEEEFNYPLDNVHLLGYSLGAHAAGIAGSLTNKKVNRITGLDPAGPNFEYAEAPSRLSPDDADFVDVLHTFTRGSPGRSIGIQKPVGHVDIYPNGGTFQPGCNIGEAIRVIAERGLGDVDQLVKCSHERSIHLFIDSLLNEENPSKAYRCSSKEAFEKGLCLSCRKNRCNNLGYEINKVRAKRSSKMYLKTRSQMPYKVFHYQVKIHFSGTESETHTNQAFEISLYGTVAESENIPFTLPEVSTNKTYSFLIYTEVDIGELLMLKLKWKSDSYFSWSDWWSSPGFAIQKIRVKAGETQKKVIFCSREKVSHLQKGKAPAVFVKCHDKSLNKKSGGGGGSGGGGSGGGGSGGGGSQTQQEEEEEDEDHGPDDYDEEDEDEVEEEETNRLPGGRSRVLLRCYTCKSLPRDERCNLTQNCSHGQTCTTLIAHGNTESGLLTTHSTWCTDSCQPITKTVEGTQVTMTCCQSSLCNVPPWQSSRVQDPTG"
–,no binding,"His6-TEV-LPL (N-terminally His6-tagged human lipoprotein lipase) (enzyme, human lipoprotein lipase; also called His6-LPL; hLPL; not shown: His6, N-terminal, kept) ADQRRDFIDIESKFALRTPEDTAEDTCHLIPGVAESVATCHFNHSSKTFMVIHGWTVTGMYESWVPKLVAALYKREPDSNVIVVDWLSRAQEHYPVSAGYTKLVGQDVARFINWMEEEFNYPLDNVHLLGYSLGAHAAGIAGSLTNKKVNRITGLDPAGPNFEYAEAPSRLSPDDADFVDVLHTFTRGSPGRSIGIQKPVGHVDIYPNGGTFQPGCNIGEAIRVIAERGLGDVDQLVKCSHERSIHLFIDSLLNEENPSKAYRCSSKEAFEKGLCLSCRKNRCNNLGYEINKVRAKRSSKMYLKTRSQMPYKVFHYQVKIHFSGTESETHTNQAFEISLYGTVAESENIPFTLPEVSTNKTYSFLIYTEVDIGELLMLKLKWKSDSYFSWSDWWSSPGFAIQKIRVKAGETQKKVIFCSREKVSHLQKGKAPAVFVKCHDKSLNKKSG"
